In patent EP0108854A1, “Drug for stimulating hepatic cell homeostasis and for restoring the functional capacity of the hepatocytes” (ARCONTHORN LIMITED, priority 1982, dated 1984):
At least one structure is not confirmed: it was looked up by name or label, or the drawing left a doubt.

Columns and labels:
rats fed with Nath diet [1] = experiment: Nath diet experiments in the same manner, comparison with other drugs at present in use (25th, 35th, 45th day); type: in vivo; details: for increase in triglyceridemia: 25th day
Description: Experiments were carried out in the same manner as explained above with other drugs at present in use and, more particularly, phosphorylcholine (2 doses/25 and 50 mg/kg), sillimarine (Legalon, 70 mg/kg), S-adenosyl-1-methionine (Samyr) 25 mg/kg.
In rats fed solely with the Nath diet, the increase is, however, 100%. Among the control drugs, only phosphorylcholine (50 mg/kg) achieves a slight reduction (-20%) relative to the increase observed at the end of the period with the atherogenic diet. • - as regards the cholesteraemia the protective action shown by the drug of the invention was significant. Indeed, in rats fed with the drug phosphorylcholine,a 300% increase was found after 25 days and 320% and 410% increases respectively were found on the 35th and 45th days of feeding while in rats fed with aminoethanethiosulphonic acid (100mg/kq) the increase in cholesteraemia was only 35% on the 25th and on the 35th days. On the 45th day the increase was 50%.

[2] = tested on: Wistar rats subjected to poisoning with carbon tetrachloride or an atherogenic diet; experiment: Sulphobromophtalein tests in rats poisoned with carbon tetrachloride or on an atherogenic diet; type: in vivo
hepatocytes = experiment: Tests on poisoning with heavy metals and carbon tetrachloride; type: in vivo
rats fed with Nath diet [3] = experiment: Antidyslipaemic effect in rats fed with Nath diet for 45 days (evaluations on 28th and 45th day); type: in vivo, female Wistar rats
Description: The aminoethanethiosulphonic acid, which constitutes the drug of this invention was tested experimentally on female Wistar rats to establish its antidyslipaemic effect in comparison with drugs already in use therapeutically. For this experiment, the rats were divided into five groups of five rats which were fed in accordance with the following scheme: • GROUP "A": rats fed with a normal diet of nutritive pellets having the following composition: Composition of the nutritive pellets: [formula] with the addition of vitamins (A-D3-E-C), NaCl, CaCO3 and spring water at will. • GROUP "B": rats fed with Nath diet (Nath et al. 1959 - Journal of Nutrition, 67-289). • GROUP "C": rats fed with a Nath diet incorporating the drug tiadenol (1.25 q/kg)such that the rats could take up the drug in quantities of 100 mg/kg/day. • GROUP D: rats fed with a Nath diet incorporating the drug of the invention (1.25 g/kg of aminoethanethiosulphonic acid) such that the rats could take up the drug in quantities of 100 mg/kg/day. • GROUP"E":rats fed with a Nath diet incorporating the drug of the invention (aminoethanethiosulphonic acid) in quantities of 2.5 g/kg, so that the rats could take up the drug in quantities of 200 mg/kg/day.
The experiments were carried out over a period of 45 days. On the 28th day of treatment, the cholesteraemia and the blood triglyceride level of the rats were measured.
On the 45th day from the start of the treatment, however a whole series of systematic weight and hematochemical evaluations was carried out in accordance with the following scheme: • - liver weight/body weight percentage ratio • - ratio of the weight of the liver when removed/dry weight of the liver • - cholesteraemia according to the Watson method (1) • - blood triglyceride level according to the Bermryer method (2) • - blood alkaline phosphatase level (3,4) • - glutamic oxaloacetic transaminase level according to the Karmen method (5,6) • - glutamic pyruvic transaminase level according to the Wroblewski and La-Due method (7) • - total lipid content of the liver by extraction with ether, separation by decantation, evaporation of the ether part in an oven and weighing of the residue. • 1. - WATSON D. (1960) Clin. Chim. Acta, 5 : 637 • 2. - BERGMRYER H.U. (1975) Z. Klin. Chem. and Klin. Biochem.13 : 507 • 3; - Anon. (1970) Z.Klin. Chem. and Klin.Biochem 13 : 507. • 4. - Anon.(1972) Z.Klin. Chem. and Klin. Biochem 13 : 507. • 5. - KARMEN A. and coll. (1955) J. Clin. Invest. 34 : 126. • 6. - KARMEN A. (1955) J. Clin Invest. 34 : 131 • 7. - WROBLEWSKI F. and coll. (1956) Proc. Soc. exp. Biol. Med. 91 : 569. […]

SMILES	protection from the point of view of lipid infiltration (rats fed with Nath diet [1]; control drugs compared with aminoethanethiosulphonic acid)	protective action in sulphobromophtalein tests [2]	effectiveness of the action on hepatocytes (hepatocytes)	protective effect with reference to the blood triglyceride and cholesterol levels (rats fed with Nath diet [3]; 200 mg/kg/day, Table 1 (28th day))	cholesteraemia and blood triglycerides (rats fed with Nath diet [3]; 28th day, 100 mg/kg/day)	cholesteraemia and blood triglycerides (rats fed with Nath diet [3]; 45th day)	hepatic steatosis (macroscopic and microscopic anatomical-pathological study) (rats fed with Nath diet [3]; 45th day, greater proportion of rats, tiadenol 100 mg/kg/day)	increase in triglyceridemia (rats fed with Nath diet [1]; 100 mg/kg/day)	increase in triglyceridemia (rats fed with Nath diet [1]; 200 mg/kg/day)	changes in the transaminase levels (GOT and GPT) (rats fed with Nath diet [1]; particularly at the dosage of 100 mg/kg)
C[N+](C)(C)CCOP(=O)(O)O [phosphorylcholine, reference compound]	protection was found but was only half that given by the aminoethanethiosulphonic acid									
NCCS(=O)(=O)S [aminoethanethiosulphonic acid]		showed the effectiveness of the protective action	further supported	does not, however, show any protective effect	considerable improvements	not significantly better except in rats which had received the drug of the invention in doses of 200 mg/kg/day	did not, however, show hepatic steatosis	does not increase	does not increase	good antiatherogenic and liver protective action
